Experimental data as given in patent US20070003561A1.
These are yes or no findings as the source states them, for the method shown. Some binding calls cover weakened binding; strength is not graded here.

The chains behind the UniProt entries cited, without tags or fusion partners. Where a name states a change or a piece, a line headed by the entry shows the natural chain unless it says otherwise.
UniProt P0A4G2: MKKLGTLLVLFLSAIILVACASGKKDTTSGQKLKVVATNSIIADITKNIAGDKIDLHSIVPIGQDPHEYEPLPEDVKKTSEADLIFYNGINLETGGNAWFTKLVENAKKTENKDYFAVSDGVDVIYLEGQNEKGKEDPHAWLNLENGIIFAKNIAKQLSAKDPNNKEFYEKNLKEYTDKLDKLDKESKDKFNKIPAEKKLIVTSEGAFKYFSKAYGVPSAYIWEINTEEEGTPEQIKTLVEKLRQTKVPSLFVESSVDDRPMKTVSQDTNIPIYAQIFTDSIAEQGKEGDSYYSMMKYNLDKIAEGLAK

Target: Streptococcus pneumoniae surface adhesin A (PsaA) protein (Streptococcus pneumoniae) (UniProt P0A4G2)
Assay: Western blot on S. pneumoniae lysates, Ab 2 µg/ml

B1: Anti-PsaA 7-1G9 (antibody, V domains shown)
VH: QVRLQQWGAGLLKPSETLSLTCAVFGGSFSGFSWSWIRQTPGKGLEWIGEIDYRGSTNYNPSLKSRVTILRDTSRSQFSLKLSSVTAADSAVFYCARGGPRFDYWGQGTLVTVSS
VL: DIQMTQSPSSLSASVGDRVTITCRASQGISSWLAWYQQKPEKAPESLIYVASSLQSGVPSRFSGSGSGTDFTLTISSLQPEDFATYYCQQYNSYPPTFGQGTKVEIK
  binding: binds
